Results taken from PMC6884552, “Glycogen branching enzyme controls cellular iron homeostasis via Iron Regulatory Protein 1 and mitoNEET” (Nature Communications, 2019).
No constants are given. Whether binding was seen depends on the method and setting. Binding seen in cells or lysates may run through a third protein. Here binding means that the protein was enriched with, or labelled near, the bait; the list need not be complete. For part of these data: No binding means not detected with the bait. Where a sequence is shown, tags or fusion partners need not be part of it.

By UniProt entry, the sequences of proteins in these tests, tags left out.
UniProt P08985: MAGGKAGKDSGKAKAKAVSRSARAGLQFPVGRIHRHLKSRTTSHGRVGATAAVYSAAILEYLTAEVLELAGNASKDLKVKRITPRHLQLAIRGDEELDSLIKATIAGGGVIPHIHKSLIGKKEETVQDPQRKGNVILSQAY

T1: Drosophila IRP1A in larvae (endogenously Flag-tagged IRP1A^3F as bait; endogenous IRP1A as prey) (Drosophila (endogenous in larvae)) (UniProt Q9VCV4)
T1 sequence: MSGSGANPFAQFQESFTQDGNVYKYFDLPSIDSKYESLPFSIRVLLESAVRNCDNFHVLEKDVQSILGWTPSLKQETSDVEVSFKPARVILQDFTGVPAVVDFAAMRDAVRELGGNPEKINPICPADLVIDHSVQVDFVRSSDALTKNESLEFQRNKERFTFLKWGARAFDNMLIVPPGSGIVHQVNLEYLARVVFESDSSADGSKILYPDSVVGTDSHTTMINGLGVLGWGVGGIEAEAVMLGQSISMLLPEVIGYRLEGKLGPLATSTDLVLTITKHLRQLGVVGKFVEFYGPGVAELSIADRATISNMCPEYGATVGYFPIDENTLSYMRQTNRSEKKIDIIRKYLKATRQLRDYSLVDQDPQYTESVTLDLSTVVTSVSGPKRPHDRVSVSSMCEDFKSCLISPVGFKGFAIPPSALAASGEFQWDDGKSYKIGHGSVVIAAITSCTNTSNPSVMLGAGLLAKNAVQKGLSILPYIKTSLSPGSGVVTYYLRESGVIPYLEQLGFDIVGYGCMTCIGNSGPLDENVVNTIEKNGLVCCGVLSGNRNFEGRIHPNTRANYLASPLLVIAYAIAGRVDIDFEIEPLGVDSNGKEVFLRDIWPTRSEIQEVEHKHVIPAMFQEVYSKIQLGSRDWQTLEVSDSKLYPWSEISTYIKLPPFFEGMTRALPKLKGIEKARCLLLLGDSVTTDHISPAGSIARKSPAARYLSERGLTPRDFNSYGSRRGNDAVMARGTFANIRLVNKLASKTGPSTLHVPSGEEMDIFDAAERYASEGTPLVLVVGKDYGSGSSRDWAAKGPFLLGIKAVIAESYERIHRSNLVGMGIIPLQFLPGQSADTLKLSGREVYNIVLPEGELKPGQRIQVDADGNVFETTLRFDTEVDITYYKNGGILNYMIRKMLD

T2: transgenic Flag-tagged Drosophila IRP1A C450S expressed in flies (Drosophila) (UniProt Q9VCV4)
T2 sequence: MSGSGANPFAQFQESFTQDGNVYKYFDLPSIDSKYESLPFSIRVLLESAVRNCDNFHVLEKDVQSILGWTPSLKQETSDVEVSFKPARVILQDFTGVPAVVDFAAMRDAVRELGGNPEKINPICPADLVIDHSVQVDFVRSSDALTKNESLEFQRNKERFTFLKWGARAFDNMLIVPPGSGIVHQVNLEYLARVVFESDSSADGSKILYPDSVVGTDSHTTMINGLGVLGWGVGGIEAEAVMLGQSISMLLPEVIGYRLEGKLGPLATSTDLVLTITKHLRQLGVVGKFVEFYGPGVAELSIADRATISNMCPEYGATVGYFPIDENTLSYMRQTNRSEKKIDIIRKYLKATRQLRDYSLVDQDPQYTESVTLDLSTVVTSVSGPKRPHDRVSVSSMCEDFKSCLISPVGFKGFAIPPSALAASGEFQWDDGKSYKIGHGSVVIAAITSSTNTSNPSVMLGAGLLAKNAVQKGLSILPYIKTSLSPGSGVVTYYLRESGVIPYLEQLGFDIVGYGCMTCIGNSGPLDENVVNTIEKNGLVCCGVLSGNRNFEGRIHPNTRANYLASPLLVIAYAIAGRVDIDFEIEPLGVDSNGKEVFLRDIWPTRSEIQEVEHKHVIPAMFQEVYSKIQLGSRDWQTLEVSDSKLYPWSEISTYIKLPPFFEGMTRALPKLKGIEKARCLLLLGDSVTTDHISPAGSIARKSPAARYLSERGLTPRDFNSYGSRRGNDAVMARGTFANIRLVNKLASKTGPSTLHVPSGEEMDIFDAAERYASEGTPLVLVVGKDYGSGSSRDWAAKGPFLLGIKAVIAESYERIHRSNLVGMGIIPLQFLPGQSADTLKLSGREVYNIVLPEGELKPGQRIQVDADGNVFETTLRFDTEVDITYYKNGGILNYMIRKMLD

T3: Drosophila IRP1B in larvae (endogenously Flag-tagged IRP1B^3F as bait; endogenous IRP1B as prey) (Drosophila (endogenous in larvae)) (UniProt Q9VGZ3)
T3 sequence: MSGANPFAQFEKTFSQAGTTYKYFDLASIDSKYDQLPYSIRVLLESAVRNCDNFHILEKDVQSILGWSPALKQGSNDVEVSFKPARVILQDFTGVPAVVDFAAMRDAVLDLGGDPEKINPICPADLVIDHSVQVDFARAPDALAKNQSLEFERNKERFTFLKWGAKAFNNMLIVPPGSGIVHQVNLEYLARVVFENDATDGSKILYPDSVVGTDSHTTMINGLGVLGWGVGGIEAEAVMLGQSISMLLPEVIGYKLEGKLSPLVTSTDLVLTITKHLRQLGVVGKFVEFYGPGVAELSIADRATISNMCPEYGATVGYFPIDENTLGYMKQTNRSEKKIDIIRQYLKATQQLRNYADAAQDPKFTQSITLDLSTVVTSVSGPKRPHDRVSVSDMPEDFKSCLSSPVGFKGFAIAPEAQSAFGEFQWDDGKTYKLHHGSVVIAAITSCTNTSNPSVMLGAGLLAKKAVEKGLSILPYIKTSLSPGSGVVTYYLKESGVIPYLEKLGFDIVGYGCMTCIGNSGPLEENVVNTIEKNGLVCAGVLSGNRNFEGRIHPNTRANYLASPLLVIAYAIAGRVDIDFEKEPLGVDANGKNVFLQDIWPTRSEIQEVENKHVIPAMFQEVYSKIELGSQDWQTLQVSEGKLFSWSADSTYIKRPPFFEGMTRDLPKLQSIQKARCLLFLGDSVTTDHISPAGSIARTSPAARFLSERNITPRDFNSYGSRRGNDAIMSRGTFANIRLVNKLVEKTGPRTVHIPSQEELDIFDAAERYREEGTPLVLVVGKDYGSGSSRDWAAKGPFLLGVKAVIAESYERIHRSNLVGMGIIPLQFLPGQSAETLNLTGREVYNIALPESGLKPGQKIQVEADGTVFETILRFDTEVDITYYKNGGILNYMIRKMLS


What was measured:
[1] = molecular target: T1, Drosophila IRP1A in larvae (endogenously Flag-tagged IRP1A^3F as bait; endogenous IRP1A as prey) (Drosophila (endogenous in larvae)); experiment: condition: only larvae reared for two generations on BPS (iron-depleted) food; affinity purification with mass spectrometry; whole-body larvae of IRP1A^3F flies reared for two generations (G2) on BPS-supplemented (iron-depleted) food; anti-Flag immunoprecipitation
[2] = molecular target: T1, Drosophila IRP1A in larvae (endogenously Flag-tagged IRP1A^3F as bait; endogenous IRP1A as prey) (Drosophila (endogenous in larvae)); experiment: condition: only larvae reared for one generation on BPS (iron-depleted) food; affinity purification with mass spectrometry; whole-body larvae of IRP1A^3F flies reared for one generation (G1) on BPS-supplemented (iron-depleted) food; anti-Flag immunoprecipitation
[3] = molecular target: T1, Drosophila IRP1A in larvae (endogenously Flag-tagged IRP1A^3F as bait; endogenous IRP1A as prey) (Drosophila (endogenous in larvae)); experiment: affinity purification with mass spectrometry; whole-body L3 larvae with Flag-tagged knock-in alleles (AGBE^FCF, IRP1A^3F, IRP1B^3F) on regular food (IRP1A^3F also after one or two generations on BPS food); 0.2% formaldehyde cross-linking in vivo; anti-Flag M2 affinity gel, 2 h, 4 °C; proteins found in untagged controls removed
[4] = molecular target: T2, transgenic Flag-tagged Drosophila IRP1A C450S expressed in flies (Drosophila); experiment: affinity purification with mass spectrometry; samples from four fly strains expressing Flag-tagged transgenes IRP1A^C450S, IRP1B^C447S, IRP1A^3R3Q or IRP1B^3R3Q; anti-Flag immunoprecipitation; tissue per sample in Supplementary Table 2
[5] = molecular target: T1, Drosophila IRP1A in larvae (endogenously Flag-tagged IRP1A^3F as bait; endogenous IRP1A as prey) (Drosophila (endogenous in larvae)); experiment: affinity purification with mass spectrometry; prothoracic gland cells purified from dissected brain-ring gland complexes (CD8.Venus, anti-CD8 beads); 0.2% formaldehyde cross-linking; anti-Flag immunoprecipitation as for whole body
[6] = molecular target: T1, Drosophila IRP1A in larvae (endogenously Flag-tagged IRP1A^3F as bait; endogenous IRP1A as prey) (Drosophila (endogenous in larvae)); experiment: affinity purification with mass spectrometry; whole-body L3 larvae with Flag-tagged knock-in alleles (AGBE^FCF, IRP1A^3F, IRP1B^3F) on regular food (IRP1A^3F also after one or two generations on BPS food); 0.2% formaldehyde cross-linking in vivo; anti-Flag M2 affinity gel, 2 h, 4 °C; proteins found in untagged controls removed; remark: listed apart in the source
[7] = molecular target: T3, Drosophila IRP1B in larvae (endogenously Flag-tagged IRP1B^3F as bait; endogenous IRP1B as prey) (Drosophila (endogenous in larvae)); experiment: as above

| Molecule | binding [1] | binding [2] | binding [3] | binding [4] | binding [5] | binding [6] | binding [7] |
| --- | --- | --- | --- | --- | --- | --- | --- |
| Drosophila histone H2Av, endogenous in larvae (from UniProt P08985 1-141) | no binding | no binding | binds |  |  |  |  |
| Drosophila AGBE in larvae (endogenously Flag-tagged AGBE^FCF as bait; endogenous AGBE as prey) (enzyme, UniProt A1Z992 1-685) MAEAKDIEKLFETDGYLRPFEHEIRRRHGVLEDWLNKINQSEGGLDGFSTAYKHYGLHFQPDNSVIAREWAPGARDVYLTGDFNNWHWESHPFKKLDFGKWELHLPPNEDGSPAIKHLSEIKIIIRNHSGQLLDRLSPWAKYVVQPPKSANQGVNYKQYVWEPPSYERYQRQHPGPPRPKSLRIYECHVGIASQEPRVGSYDEFADRIVPRIKRQGYNCIQVMAIMEHAYYASFGYQVTSFYAASSRYGNPEQLKRMIDVAHSHGLFVLLDVVHSHASKNVQDGLNQFDGTNSCFFHDGARGEHSLWDSRLFNYVEYEVLRFLLSNLRWWHDEYNFDGYRFDGVTSMLYHSRGIGEGFSGDYNEYFGLNVDTDALNYLGLANHLLHTIDSRIITIAEDVSGMPTLCRPVSEGGIGFDYRLGMAIPDKWIELLKEQSDDEWDMGNLVHTLTNRRWMENTVAYAESHDQALVGDKTIAFWLMDKEMYTHMSTLSDSSVIIDRGLALHKMIRLITHALGGEAYLNFMGNEFGHPEWLDFPRVGNNDSYHYARRQWNLVDDDLLKYKYLNEFDRAMNEAEERYGWLHSGPAWVSWKHEGDKIIAFERAGLVFVFNFHPQQSFTGYRVGTNWAGTYQAVLSSDDPLFGGHNRIDANCKHPSNPEGYAGRSNFIEVYTPSRTAVVYARVSD | no binding | no binding |  | no binding | binds | binds | binds |
